The supplement of paper PMC8728848
Some of the results follow.

Key:
Test in all cases: glycan array binding signal (z-score within array); higher = stronger binding
Settings in all cases: glycan notation: IUPAC condensed, linker removed
[1] = target: Gal(b1-3)GlcNAc(b1-3)Gal(b1-4)GlcNAc(b1-2)[Gal(b1-3)GlcNAc(b1-3)Gal(b1-4)GlcNAc(b1-6)]Man(a1-6)[Gal(b1-3)GlcNAc(b1-3)Gal(b1-4)GlcNAc(b1-2)Man(a1-3)]Man(b1-4)GlcNAc(b1-4)[Fuc(a1-6)]GlcNAc
In short: (§1)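 Glycan array binding is given as a within-array Z-score, which can be read as non-binding when negative. The arrays, 3228 of them, came from the Consortium for Functional Glycomics database and were retained only where the protein sequence was available. Z-scores were averaged across arrays of the same protein sequence at different concentrations or buffers and across linkers.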

[2] = target: Gal(b1-3)GlcNAc(b1-3)Gal(b1-4)GlcNAc(b1-3)Gal(b1-4)GlcNAc(b1-2)[Gal(b1-3)GlcNAc(b1-3)Gal(b1-4)GlcNAc(b1-3)Gal(b1-4)GlcNAc(b1-6)]Man(a1-6)[Gal(b1-3)GlcNAc(b1-3)Gal(b1-4)GlcNAc(b1-3)Gal(b1-4)GlcNAc(b1-2)Man(a1-3)]Man(b1-4)GlcNAc(b1-4)[Fuc(a1-6)]GlcNAc
In short: as §1

[3] = target: Gal(b1-3)GlcNAc(b1-3)Gal(b1-4)GlcNAc(b1-6)[Gal(b1-3)GlcNAc(b1-3)]Gal(b1-4)Glc
In short: as §1

[4] = target: Gal(b1-3)GlcNAc(b1-3)Gal(b1-4)[Fuc(a1-3)]GlcNAc
In short: as §1

[5] = target: Gal(b1-3)GlcNAc(b1-3)Gal(b1-4)[Fuc(a1-3)]GlcNAc(b1-6)[Gal(b1-3)GlcNAc(b1-3)]Gal(b1-4)Glc
In short: as §1

[6] = target: Gal(b1-3)GlcNAc(b1-3)GalNAc
In short: as §1

[7] = target: Gal(b1-3)GlcNAc(b1-6)Gal(b1-4)GlcNAc
In short: as §1

[8] = target: Gal(b1-3)GlcNAc(b1-6)GalNAc
In short: as §1

[9] = target: Gal(b1-3)GlcNAc(b1-6)[Gal(b1-3)]GalNAc
In short: as §1

[10] = target: Gal(b1-3)GlcNAc6S
In short: as §1

[11] = target: Gal(b1-3)[Fuc(a1-4)]GlcNAc
In short: as §1

[12] = target: Gal(b1-3)[Fuc(a1-4)]GlcNAc(b1-2)Man
In short: as §1

[13] = target: Gal(b1-3)[Fuc(a1-4)]GlcNAc(b1-2)Man(a1-3)[Gal(b1-3)[Fuc(a1-4)]GlcNAc(b1-2)Man(a1-6)]Man(b1-4)GlcNAc(b1-4)[Fuc(a1-6)]GlcNAc
In short: as §1

[14] = target: Gal(b1-3)[Fuc(a1-4)]GlcNAc(b1-3)Gal(b1-3)[Fuc(a1-4)]GlcNAc
In short: as §1

[15] = target: Gal(b1-3)[Fuc(a1-4)]GlcNAc(b1-3)Gal(b1-4)[Fuc(a1-3)]GlcNAc
In short: as §1

[16] = target: Gal(b1-3)[Fuc(a1-4)]GlcNAc(b1-6)GalNAc
In short: as §1

[17] = target: Gal(b1-3)[GlcNAc(b1-6)]GalNAc
In short: as §1

[18] = target: Gal(b1-3)[Neu5Ac(a2-6)]GalNAc
In short: as §1

[19] = target: Gal(b1-3)[Neu5Ac(a2-6)]GlcNAc(b1-4)Gal(b1-4)Glc
In short: as §1

[20] = target: Gal(b1-3)[Neu5Ac(b2-6)]GalNAc
In short: as §1

[21] = target: Gal(b1-4)Gal
In short: as §1

[22] = target: Gal(b1-4)GalNAc(a1-3)[Fuc(a1-2)]Gal(b1-4)GlcNAc
In short: as §1

[23] = target: Gal(b1-4)GalNAc(b1-3)[Fuc(a1-2)]Gal(b1-4)GlcNAc
In short: as §1

[24] = target: Gal(b1-4)Glc
In short: as §1

[25] = target: Gal(b1-4)Glc6S
In short: as §1

[26] = target: Gal(b1-4)GlcNAc
In short: as §1

[27] = target: Gal(b1-4)GlcNAc(a1-6)Gal(b1-4)GlcNAc
In short: as §1

[28] = target: Gal(b1-4)GlcNAc(b1-2)Man
In short: as §1

[29] = target: Gal(b1-4)GlcNAc(b1-2)Man(a1-3)Man(b1-4)GlcNAc(b1-4)GlcNAc
In short: as §1

[30] = target: Gal(b1-4)GlcNAc(b1-2)Man(a1-3)[Gal(b1-4)GlcNAc(b1-2)Man(a1-6)]Man(b1-4)GlcNAc(b1-4)GlcNAc
In short: as §1

[31] = target: Gal(b1-4)GlcNAc(b1-2)Man(a1-3)[Gal(b1-4)GlcNAc(b1-2)Man(a1-6)]Man(b1-4)GlcNAc(b1-4)[Fuc(a1-6)]GlcNAc
In short: as §1

[32] = target: Gal(b1-4)GlcNAc(b1-2)Man(a1-3)[Gal(b1-4)GlcNAc(b1-2)Man(a1-6)][Gal(b1-4)GlcNAc(b1-4)]Man(b1-4)GlcNAc(b1-4)[Fuc(a1-6)]GlcNAc
In short: as §1

[33] = target: Gal(b1-4)GlcNAc(b1-2)Man(a1-3)[Gal(b1-4)GlcNAc(b1-2)Man(a1-6)][GlcNAc(b1-4)]Man(b1-4)GlcNAc(b1-4)[Fuc(a1-6)]GlcNAc
In short: as §1

[34] = target: Gal(b1-4)GlcNAc(b1-2)Man(a1-3)[GlcNAc(b1-2)Man(a1-6)]Man(b1-4)GlcNAc(b1-4)GlcNAc
In short: as §1

[35] = target: Gal(b1-4)GlcNAc(b1-2)Man(a1-3)[GlcNAc(b1-4)][Gal(b1-4)GlcNAc(b1-2)Man(a1-6)]Man(b1-4)GlcNAc(b1-4)GlcNAc
In short: as §1

[36] = target: Gal(b1-4)GlcNAc(b1-2)Man(a1-3)[Man(a1-6)]Man(b1-4)GlcNAc(b1-4)GlcNAc
In short: as §1

[37] = target: Gal(b1-4)GlcNAc(b1-2)Man(a1-6)Man(b1-4)GlcNAc(b1-4)GlcNAc
In short: as §1

[38] = target: Gal(b1-4)GlcNAc(b1-2)Man(a1-6)[GlcNAc(b1-2)Man(a1-3)]Man(b1-4)GlcNAc(b1-4)GlcNAc
In short: as §1

B1: HopZSSI-T (Helicobacter pylori), B5Z6D0 (protein)
chain: MGSSHHHHHHSSGLVPRGSHMENLYFQGEDNGFFISAGYQIGEAAQMVKNTGELKKLSDTYENLSNLLTNFNNLNQAVTNASSPSEINAAIDNLKANTQGLTGEKTNSPAYQAVYLALNAAVGLWNVIAYNVQCGPGNSSQQSVTFEGQPGHNSSSINCNLTGYNNGVSGPLSIDNFKQLNQAYQVLQQALKQGVPVLNNTNQKIEVKVTTQTNGQSSKETTTTTTTNDAQTLLQEASKMIDVLTTNCPWVNHNPGQNGGAPWGLIRQECVSGFATEFSAVTSMIKNAQEIVTQAQSLNANQNNQNAPQDFNPYTSADRAFAQNMLNHAQAQAKILELADQMKKDLNTIPSQFITNYLAACRIDGTTPSQGVTNNTWGAGCAYVEETITALNNSLAHFGTQAEQIKQSELLARTILDFRGSLSTLNSTYNSITTTASNTPNSPFLKNLISQSTNPNNPGGLQAVYQVNQSAYSQLLSATQELGHNPFRRIGLISSQT
- glycan array binding signal (z-score) [1]: 0.278
- glycan array binding signal (z-score) [2]: 0.589
- glycan array binding signal (z-score) [3]: -0.499
- glycan array binding signal (z-score) [4]: -0.213
- glycan array binding signal (z-score) [5]: -0.218
- glycan array binding signal (z-score) [6]: -0.174
- glycan array binding signal (z-score) [7]: 0.041
- glycan array binding signal (z-score) [8]: -0.052
- glycan array binding signal (z-score) [9]: -0.549
- glycan array binding signal (z-score) [10]: 0.642
- glycan array binding signal (z-score) [11]: -0.544
- glycan array binding signal (z-score) [12]: 0.292
- glycan array binding signal (z-score) [13]: 0.008
- glycan array binding signal (z-score) [14]: -0.459
- glycan array binding signal (z-score) [15]: -0.632
- glycan array binding signal (z-score) [16]: -0.224
- glycan array binding signal (z-score) [17]: 1.03
- glycan array binding signal (z-score) [18]: -0.197
- glycan array binding signal (z-score) [19]: -0.338
- glycan array binding signal (z-score) [20]: 0.272
- glycan array binding signal (z-score) [21]: 0.639
- glycan array binding signal (z-score) [22]: -0.243
- glycan array binding signal (z-score) [23]: -0.529
- glycan array binding signal (z-score) [24]: -0.526
- glycan array binding signal (z-score) [25]: 0.852
- glycan array binding signal (z-score) [26]: 0.036
- glycan array binding signal (z-score) [27]: -0.398
- glycan array binding signal (z-score) [28]: 0.042
- glycan array binding signal (z-score) [29]: -0.359
- glycan array binding signal (z-score) [30]: -0.691
- glycan array binding signal (z-score) [31]: -0.035
- glycan array binding signal (z-score) [32]: -0.243
- glycan array binding signal (z-score) [33]: -0.305
- glycan array binding signal (z-score) [34]: -0.303
- glycan array binding signal (z-score) [35]: -0.51
- glycan array binding signal (z-score) [36]: 0.105
- glycan array binding signal (z-score) [37]: -0.076
- glycan array binding signal (z-score) [38]: -0.286
